# The supplement of paper PMC8728848
# The other results are listed elsewhere or left out.
# B1: Mcg Light Chain Dimer (Homo sapiens), Q6PIK1 (protein)
# chain: MAGFPLLLTLLTHCAGSWGQSLLTQPPSVSGTPGQRVTISCSGSSSNIGINYVYWYQQIPGTAPKLLISTNDQRPSGVPDRFSGSKSGTSASLAIGGLRSEDEAHYYCAAWDDSMSGPGYAFGTGTKVTVLRQPKANPTVTLFPPSSEELQANKATLVCLISDFYPGAVTVAWKADGSPVKAGVETTKPSKQSNNKYAASSYLSLTPEQWKSHRSYSCQVTHEGSTVEKTVAPTECS
# Legend:
# Assay in all cases: glycan array binding signal (z-score within array); higher = stronger binding
# Conditions in all cases: glycan notation: IUPAC condensed, linker removed
# [1] = target: Fuc(a1-2)[GalNAc(a1-3)]Gal(b1-4)[Fuc(a1-3)]GlcNAc
# How it was run: (§1)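 Columns mapping to the same glycan were averaged after glycan names were converted to IUPAC-condensed notation. The data come from 3228 arrays in the Consortium for Functional Glycomics database, limited to those with an available protein sequence. Binding is reported as a within-array Z-score averaged across arrays of one protein sequence and across linkers.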
# [2] = target: Fuc(a1-2)[GalNAc(a1-4)]Gal(b1-4)GlcNAc
# How it was run: as §1
# [3] = target: Fuc(a1-2)[GalNAc(b1-3)]Gal
# How it was run: as §1
# [4] = target: Fuc(a1-3)GlcNAc
# How it was run: as §1
# [5] = target: Fuc(a1-3)[Gal(b1-4)]Glc6S
# How it was run: as §1
# [6] = target: Fuc(a1-3)[Gal(b1-4)]GlcNAc
# How it was run: as §1
# [7] = target: Fuc(a1-3)[Gal(b1-4)]GlcNAc(b1-2)Man(a1-3)[Fuc(a1-3)[Gal(b1-4)]GlcNAc(b1-2)Man(a1-6)]Man(b1-4)GlcNAc(b1-4)GlcNAc
# How it was run: as §1
# [8] = target: Fuc(a1-3)[Gal(b1-4)]GlcNAc(b1-2)Man(a1-6)[Gal(b1-4)GlcNAc(b1-2)Man(a1-3)]Man(b1-4)GlcNAc(b1-4)GlcNAc
# How it was run: as §1
# [9] = target: Fuc(a1-3)[Gal(b1-4)]GlcNAc(b1-3)Gal(b1-3)[Fuc(a1-4)]GlcNAc
# How it was run: as §1
# [10] = target: Fuc(a1-3)[Gal(b1-4)]GlcNAc(b1-4)Gal(b1-4)[Fuc(a1-3)]GlcNAc
# How it was run: as §1
# [11] = target: Fuc(a1-3)[Gal(b1-4)]GlcNAc(b1-4)Gal(b1-4)[Fuc(a1-3)]GlcNAc(b1-4)Gal(b1-4)[Fuc(a1-3)]GlcNAc
# How it was run: as §1
# [12] = target: Fuc(a1-3)[Gal(b1-4)]GlcNAc6S
# How it was run: as §1
# [13] = target: Fuc(a1-3)[Gal3S(b1-4)]Glc6S
# How it was run: as §1
# [14] = target: Fuc(a1-3)[Gal3S(b1-4)]GlcNAc
# How it was run: as §1
# [15] = target: Fuc(a1-3)[Gal3S(b1-4)]GlcNAc6S
# How it was run: as §1
# [16] = target: Fuc(a1-3)[GalNAc(b1-4)]GlcNAc
# How it was run: as §1
# [17] = target: Fuc(a1-4)GlcNAc
# How it was run: as §1
# [18] = target: Fuc(b1-3)GlcNAc
# How it was run: as §1
# [19] = target: Gal(a1-2)Gal
# How it was run: as §1
# [20] = target: Gal(a1-3)Gal
# How it was run: as §1
# [21] = target: Gal(a1-3)Gal(b1-3)GlcNAc
# How it was run: as §1
# [22] = target: Gal(a1-3)Gal(b1-4)Glc
# How it was run: as §1
# [23] = target: Gal(a1-3)Gal(b1-4)GlcNAc
# How it was run: as §1
# [24] = target: Gal(a1-3)Gal(b1-4)[Fuc(a1-3)]GlcNAc
# How it was run: as §1
# [25] = target: Gal(a1-3)GalNAc
# How it was run: as §1
# [26] = target: Gal(a1-3)[Gal(a1-4)]Gal(b1-4)GlcNAc
# How it was run: as §1
# [27] = target: Gal(a1-4)Gal(b1-4)Glc
# How it was run: as §1
# [28] = target: Gal(a1-4)Gal(b1-4)GlcNAc
# How it was run: as §1
# [29] = target: Gal(a1-4)GlcNAc
# How it was run: as §1
# [30] = target: Gal(a1-6)Glc
# How it was run: as §1
binder,measurement,setting,value
B1,glycan array binding signal (z-score),[1],0.285
same,glycan array binding signal (z-score),[2],0.28
same,glycan array binding signal (z-score),[3],0.344
same,glycan array binding signal (z-score),[4],-0.817
same,glycan array binding signal (z-score),[5],0.996
same,glycan array binding signal (z-score),[6],-0.433
same,glycan array binding signal (z-score),[7],0.038
same,glycan array binding signal (z-score),[8],-0.998
same,glycan array binding signal (z-score),[9],-0.769
same,glycan array binding signal (z-score),[10],0.391
same,glycan array binding signal (z-score),[11],-0.985
same,glycan array binding signal (z-score),[12],-0.489
same,glycan array binding signal (z-score),[13],2.11
same,glycan array binding signal (z-score),[14],0.341
same,glycan array binding signal (z-score),[15],4.13
same,glycan array binding signal (z-score),[16],0.354
same,glycan array binding signal (z-score),[17],-0.987
same,glycan array binding signal (z-score),[18],-0.12
same,glycan array binding signal (z-score),[19],-0.884
same,glycan array binding signal (z-score),[20],0.2
same,glycan array binding signal (z-score),[21],-0.979
same,glycan array binding signal (z-score),[22],-1.04
same,glycan array binding signal (z-score),[23],0.187
same,glycan array binding signal (z-score),[24],0.315
same,glycan array binding signal (z-score),[25],0.154
same,glycan array binding signal (z-score),[26],-1.03
same,glycan array binding signal (z-score),[27],0.573
same,glycan array binding signal (z-score),[28],-0.228
same,glycan array binding signal (z-score),[29],-0.936
same,glycan array binding signal (z-score),[30],0.141

# Reformatted: results already given.
binder	measurement	setting	value
B1	glycan array binding signal (z-score)	[19]	-0.884
same	glycan array binding signal (z-score)	[20]	0.2
same	glycan array binding signal (z-score)	[21]	-0.979
same	glycan array binding signal (z-score)	[22]	-1.04
same	glycan array binding signal (z-score)	[23]	0.187
same	glycan array binding signal (z-score)	[24]	0.315
